Measured values taken from publication PMC12240075.
Results are given in words; binding and its absence hold for the method and conditions named. In cells and extracts the contact can be indirect. Some results given as binding are weak or reduced against the parent protein; the word gives no strength. Sequences can lack the tags named with a protein.

Protein sequences, listed by entry. Tags and fused reporters are not part of them.
UniProt P11142: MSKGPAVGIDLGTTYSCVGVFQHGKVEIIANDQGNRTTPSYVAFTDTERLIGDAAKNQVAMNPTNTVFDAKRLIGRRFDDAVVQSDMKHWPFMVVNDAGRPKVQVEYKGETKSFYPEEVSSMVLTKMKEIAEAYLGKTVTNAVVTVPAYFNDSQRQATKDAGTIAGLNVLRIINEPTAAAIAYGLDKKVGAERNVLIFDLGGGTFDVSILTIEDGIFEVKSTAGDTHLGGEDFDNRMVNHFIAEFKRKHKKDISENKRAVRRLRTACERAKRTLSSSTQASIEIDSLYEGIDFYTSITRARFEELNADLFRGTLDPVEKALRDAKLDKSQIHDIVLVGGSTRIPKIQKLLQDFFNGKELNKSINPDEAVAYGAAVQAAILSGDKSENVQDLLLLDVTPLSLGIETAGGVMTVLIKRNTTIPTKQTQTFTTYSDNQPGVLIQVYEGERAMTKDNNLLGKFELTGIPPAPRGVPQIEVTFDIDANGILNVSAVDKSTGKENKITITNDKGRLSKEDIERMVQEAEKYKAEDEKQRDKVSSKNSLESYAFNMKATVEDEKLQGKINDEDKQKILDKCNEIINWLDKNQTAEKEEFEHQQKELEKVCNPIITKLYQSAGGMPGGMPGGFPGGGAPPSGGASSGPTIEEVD

Assays:
HA-OGA-K358R = biological target: T1, HA-OGA-K358R (UniProt O60502); experiment: co-IP; both proteins tagged and overproduced in transfected cells (HEK293T); immunoprecipitation by the tag, immunoblot; lysis buffer 200 mM NaCl, 1 mM EDTA, 20 mM Tris (pH 7.5), 0.5% NP-40
T1 sequence: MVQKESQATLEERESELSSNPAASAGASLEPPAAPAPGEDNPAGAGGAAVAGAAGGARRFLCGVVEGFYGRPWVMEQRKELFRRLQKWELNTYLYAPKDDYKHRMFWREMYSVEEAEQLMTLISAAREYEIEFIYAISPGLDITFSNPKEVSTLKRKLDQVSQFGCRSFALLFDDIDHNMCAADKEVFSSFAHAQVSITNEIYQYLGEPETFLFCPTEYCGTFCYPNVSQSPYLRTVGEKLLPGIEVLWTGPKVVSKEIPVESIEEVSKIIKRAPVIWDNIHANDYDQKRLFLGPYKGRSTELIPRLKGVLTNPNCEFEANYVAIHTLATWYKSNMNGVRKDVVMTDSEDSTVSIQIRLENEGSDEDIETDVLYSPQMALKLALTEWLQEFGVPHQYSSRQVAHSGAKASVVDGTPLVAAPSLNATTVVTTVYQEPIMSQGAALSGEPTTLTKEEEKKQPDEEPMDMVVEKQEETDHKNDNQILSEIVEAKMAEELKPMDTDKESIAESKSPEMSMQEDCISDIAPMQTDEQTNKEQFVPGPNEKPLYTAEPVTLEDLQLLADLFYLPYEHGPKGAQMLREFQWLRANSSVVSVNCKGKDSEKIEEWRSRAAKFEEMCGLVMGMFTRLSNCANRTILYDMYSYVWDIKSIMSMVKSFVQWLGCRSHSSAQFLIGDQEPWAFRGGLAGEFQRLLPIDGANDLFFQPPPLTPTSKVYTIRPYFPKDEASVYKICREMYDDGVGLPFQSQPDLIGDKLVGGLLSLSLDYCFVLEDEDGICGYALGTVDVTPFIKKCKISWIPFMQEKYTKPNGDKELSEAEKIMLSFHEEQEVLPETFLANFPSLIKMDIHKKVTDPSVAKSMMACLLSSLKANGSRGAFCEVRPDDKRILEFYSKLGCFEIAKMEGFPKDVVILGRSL

HA-YEATS2-K592R = biological target: T2, HA-YEATS2-K592R (UniProt Q9ULM3); experiment: as above
T2 sequence: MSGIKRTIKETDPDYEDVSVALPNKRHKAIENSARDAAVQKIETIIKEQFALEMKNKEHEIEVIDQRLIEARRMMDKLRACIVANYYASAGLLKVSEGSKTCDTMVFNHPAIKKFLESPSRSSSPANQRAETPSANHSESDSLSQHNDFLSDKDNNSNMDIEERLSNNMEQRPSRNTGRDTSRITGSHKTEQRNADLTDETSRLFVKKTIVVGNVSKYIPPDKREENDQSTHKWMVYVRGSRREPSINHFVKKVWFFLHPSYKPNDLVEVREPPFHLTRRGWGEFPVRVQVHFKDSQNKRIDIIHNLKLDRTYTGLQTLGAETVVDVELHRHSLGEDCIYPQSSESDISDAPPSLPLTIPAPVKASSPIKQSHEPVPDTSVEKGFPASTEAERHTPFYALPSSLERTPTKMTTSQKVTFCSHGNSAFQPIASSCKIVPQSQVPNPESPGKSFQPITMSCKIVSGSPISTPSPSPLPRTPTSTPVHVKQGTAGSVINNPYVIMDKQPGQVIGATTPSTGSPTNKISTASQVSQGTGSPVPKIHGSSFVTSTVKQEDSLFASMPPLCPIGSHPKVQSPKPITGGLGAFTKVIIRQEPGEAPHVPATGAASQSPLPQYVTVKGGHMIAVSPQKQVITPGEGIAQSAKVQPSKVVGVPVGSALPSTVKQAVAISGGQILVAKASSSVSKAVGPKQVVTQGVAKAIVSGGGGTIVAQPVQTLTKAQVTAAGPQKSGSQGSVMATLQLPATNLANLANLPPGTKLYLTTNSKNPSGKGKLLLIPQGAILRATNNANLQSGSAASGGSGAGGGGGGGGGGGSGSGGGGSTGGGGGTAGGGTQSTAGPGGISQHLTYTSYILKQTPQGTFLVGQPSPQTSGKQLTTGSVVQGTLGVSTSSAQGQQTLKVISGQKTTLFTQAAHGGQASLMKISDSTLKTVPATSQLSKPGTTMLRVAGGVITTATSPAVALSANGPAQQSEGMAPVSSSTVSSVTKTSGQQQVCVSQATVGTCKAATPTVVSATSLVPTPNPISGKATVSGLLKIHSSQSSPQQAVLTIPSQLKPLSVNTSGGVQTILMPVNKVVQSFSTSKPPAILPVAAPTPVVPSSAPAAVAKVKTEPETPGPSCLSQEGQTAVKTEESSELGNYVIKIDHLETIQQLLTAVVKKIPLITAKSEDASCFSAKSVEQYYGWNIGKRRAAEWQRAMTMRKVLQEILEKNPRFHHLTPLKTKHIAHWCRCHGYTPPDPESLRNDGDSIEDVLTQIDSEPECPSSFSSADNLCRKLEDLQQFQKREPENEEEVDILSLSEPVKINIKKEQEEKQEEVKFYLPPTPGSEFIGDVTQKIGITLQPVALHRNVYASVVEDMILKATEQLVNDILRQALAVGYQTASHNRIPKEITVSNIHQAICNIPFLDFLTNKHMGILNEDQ

**Q.** Which results are given for Flag-HSC70 (from UniProt P11142 1-646)?
**A.** binding (HA-OGA-K358R): binds; binding (HA-YEATS2-K592R): binds
